Results are given in words; binding and its absence hold for the method and conditions named. Some entries that bind do so weakly or less than the wild type.
B1: Nanobody No. 1 (VHH)
VHH: QVQLQESGGGSVQTGGSLRLSCAASTSIYSNNYMAWFSQAPGKGREGVAAVYIDDGRPYYADSVKGRFTISLDSAKNTVYLQMNRLKPEDTAMYYCAAAPGPLSHNYWYTSANYDYWGQGTQVTVSS
notes: Expressed in E. coli WK6 and purified on a nickel column; not shown: HA and His tags (implied by anti-HA detection and nickel column)
B2: Nanobody No. 3 (VHH)
VHH: QVQLQESGGGSVQTGGSLRLSCTASTSIYSNNYMAWFSQSPGKGREGVAAVYMDDGRPYYADSVKGRFTISLDSAKNTMYLQMNSLKPEDTAMYYCAAAPGPLSRNYWYTSANYDYWGQGTQVTVSS
notes: as for B1
B3: Nanobody No. 2 (VHH)
VHH: QVQLQESGGGSVQAGGSLRLSCAASGYTYSSDGMGWFRQTPGKEREGVAAISPTGRRTEYADSVKGRFTISRDNNKNMLSLQMNSLKPEDTGMYYCAREGSWSFSLANSAVRSWGQGTQVTVSS
notes: as for B1

By UniProt entry, the sequences of proteins in these tests, tags left out.
UniProt Q9NZQ7: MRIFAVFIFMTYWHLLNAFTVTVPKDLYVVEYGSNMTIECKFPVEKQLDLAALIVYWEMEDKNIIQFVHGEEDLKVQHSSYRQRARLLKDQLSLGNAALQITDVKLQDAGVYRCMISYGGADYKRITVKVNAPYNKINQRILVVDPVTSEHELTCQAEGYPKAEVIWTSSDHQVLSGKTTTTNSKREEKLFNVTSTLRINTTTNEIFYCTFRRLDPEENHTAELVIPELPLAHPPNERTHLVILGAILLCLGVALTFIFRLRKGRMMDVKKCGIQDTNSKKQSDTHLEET

target: PD-L1 (coated on the ELISA plate) (UniProt Q9NZQ7); experiment: ELISA, coated PD-L1, anti-HA detection

binding, binds:
B1, B2, B3

Source: patent publication US20200276330A1 (NANOMAB TECHNOLOGY, published 2020)
